From PubChem BioAssay (NCATS)
Where “and” joins values, the source holds several entries; their conditions need not be identical. Equal values may be shown once. Some of the results follow. Shown are side measurements of this screen, not its main read-out; they come without a call. For some assays here: Most of these compounds were active or inconclusive in the main read-out, so they are no random draw. The note in brackets gives the kind of curve behind each potency; many fits are weak.

Columns and labels:
[1] = Validation of Assay for Modulators of Lamin A Splicing (AID 1459); conditions: Lamin A splicing dual RFP/GFP fluorescence reporter, ratio
In short: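 Dual-reporter HeLa S3 line (lamin A-EGFP minigene, DsRed2) treated with compounds 48 hrs, 0.5% DMSO final. Endpoint: EGFP/DsRed2 total intensity ratio from laser-scanning microplate cytometry.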

[2] = qHTS Assay for Lipid Storage Modulators (AID 1519); conditions: Drosophila S3 cells, BODIPY lipid droplet/cell ratio, laser cytometry, cells loaded with oleic acid
In short: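 Cells seeded at 5,000 per well were treated with compounds over a concentration series and loaded with oleic acid (400 uM, as added). Lipid droplet fluorescence (488 nm excitation, 500-530 nm channel) was read by laser-scanning cytometry and normalized to 20 uM Triacsin C.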

[3] = qHTS Assay for Modulators of Human Peripheral Myelin Protein 22 (PMP22) Expression/Activity (AID 1967); conditions: Cell-based PMP22 reporter, dual-color luciferase ratio
In short: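 Engineered MSC80 cells, Pmp22-promoter green and EF-alpha red luciferase reporters; 24h compound treatment at 37 °C. Concentration-response fits on green, red and ratio signals, each overlap-corrected, with %Activity normalized to untreated wells.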

[4] = qHTS Validation Assay to Find Inhibitors of Chronic Active B-Cell Receptor Signaling (AID 485345); conditions: ABC-DLBCL cells, chronic BCR signaling reporter
In short: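 TMD8 ABC-DLBCL cells stably carrying doxycycline-inducible IkappaBalpha–green luciferase fusion plus unfused red luciferase; compounds 46 uM to 3 nM, 4 h at 37C with doxycycline. Corrected green/red luminescence ratio normalized to 10 uM MG-132 and basal cell wells; curves fitted.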

[5] = qHTS drug screen for cell cycle checkpoint inhibitors in PARPi-resistant BRCA-mutant ovarian cancer cell lines. (AID 1963452); conditions: PEO1/OlaR viability, CellTiter-Glo luminescence, 96 h; measured here: PEO4 viability
In short: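 PEO1, PEO4 and PEO1/OlaR ovarian cancer cells, 600 per well, exposed 96 h at 37C to a dilution series. Viability read by CellTiter-Glo luminescence, normalized to DMSO and empty wells; activity summarized as Z-AUC.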

[6] = qHTS for identification of novel therapeutic agents for treatment of microphthalmiaassociated transcription factor (MiT) renal cell carcinoma (RCC) (AID 1963991); conditions: CellTiter-Glo, 48 h; for z-score: stronger effect = lower value
In short: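 Viability of three TFE3-fusion renal carcinoma lines measured by CellTiter-Glo after 48 h treatment with each of 1912 compounds at 11 concentrations. Responses scaled between DMSO (100%) and empty wells (0%) before curve fitting.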

[7] = Nrf2 qHTS screen for inhibitors: Validation (AID 493153); conditions: A549 ARE-Fluc reporter, 18-24 h; AC50: CellTiter-Fluor fluorescence read, measured here: cytotoxicity CellTiter-Fluor AC50; viability change: measured here: cytotoxicity max response
In short: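 Concentration-response test in A549 ARE_Fluc reporter cells (5% FBS OPTI-MEM), compound exposure 18-24 h at 37°C, 5% CO2. Cell viability measured first by CellTiter-Fluor fluorescence; ARE-driven luciferase luminescence then measured as Nrf2 activity.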

[8] = A High-Content qHTS Against Drug Library for the Identification of Small Molecules that Inhibit DYT1 Early Onset Primary Dystonia-Associated Cell Pathology (AID 1645839); conditions: HEK293 Flp-In EGFP-delE TorsinA, punctate imaging, 48 h; measured here: cell count cytotoxicity
In short: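 Cells were seeded and left for 24 h, then dosed with compound alongside tetracycline induction of mutant EGFP-TorsinA. They were incubated for 48 h, fixed in 4% paraformaldehyde, permeabilized and imaged for mislocalization (%pathology) and cell count.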

[9] = measured here: cell count channel max response
[10] = measured here: cell number channel AC50
[11] = measured here: lipid (BODIPY) channel AC50
[12] = measured here: lipid channel max response
[13] = measured here: green reporter channel AC50, mouse Pmp22 promoter in mouse Schwann cells
[14] = measured here: red reporter channel AC50, EF-alpha promoter control reporter in MSC80 mouse Schwann cells
[15] = measured here: CBR control luciferase (viability counter)
[16] = measured here: CBG/CBR ratio read-out
[17] = TFE3-RCC UOK109 viability, measured here: UOK109 Z-AUC
[18] = TFE3-RCC viability, measured here: UOK124 Z-AUC
[19] = TFE3-RCC viability, measured here: UOK145 Z-AUC

| SMILES | AC50 ([1]; measured here: GFP channel) | AC50 ([1]; measured here: RFP channel) | max response [2, 9] | AC50 [2, 10] | AC50 [2, 11] | max response [2, 12] | AC50 [3, 13] | AC50 [3, 14] | AC50 [4, 15] | AC50 [4, 16] | AC50 [5] | z-score [6, 17] | z-score [6, 18] | z-score [6, 19] | viability change [7] [%] | AC50 ([6]; TFE3-RCC viability, measured here: UOK124 cell viability) | AC50 ([6]; TFE3-RCC viability, measured here: UOK145 cell viability) | AC50 [7] | AC50 [8] |
| --- | --- | --- | --- | --- | --- | --- | --- | --- | --- | --- | --- | --- | --- | --- | --- | --- | --- | --- | --- |
| O=[N+]([O-])c1ccc(-c2nc(-c3ccc(F)cc3)c(-c3ccncc3)[nH]2)cc1 | 0.2 µM [falling, full curve, poor fit] | 12.6 µM [falling, partial curve, poor fit] | -81.3% | 28.2 µM [falling, partial curve, poor fit] | 31.6 µM [falling, partial curve, poor fit] | -87.7% | 47.8 µM [falling, partial curve] | 60.1 µM [falling, partial curve, poor fit] | 9.2 µM [falling, partial curve] |  |  |  |  |  |  |  |  |  |  |
| O=C(N[C@@H](Cc1ccccc1)C(=O)CCl)OCc1ccccc1 | 3.55 µM [falling, full curve] | 3.98 µM [falling, full curve] | -80.6% | 3.55 µM [falling, full curve, poor fit] | 3.98 µM [falling, full curve, poor fit] | -106% | 19 µM [falling, full curve] | 13.5 µM [falling, full curve] | 10.3 µM [falling, partial curve] | 3.66 µM [falling, full curve] |  |  |  |  |  |  |  |  |  |
| Nc1nc2ccc(OC(F)(F)F)cc2s1 | 12.6 µM [rising, single point] | 12.6 µM [rising, single point] | 111% | 12.6 µM [rising, partial curve, poor fit] | 14.1 µM [rising, partial curve, poor fit] | 150% |  | 47.8 µM [falling, partial curve] |  |  | 27.5 µM [falling, single point] | 0.498 | 0.539 | 0.00644 |  |  |  |  |  |
| Cc1ccc(S(=O)(=O)N[C@@H](Cc2ccccc2)C(=O)CCl)cc1 | 3.16 µM [falling, partial curve] | 14.1 µM [falling, partial curve, poor fit] | -68.9% | 35.5 µM [falling, partial curve, poor fit] | 35.5 µM [falling, partial curve, poor fit] | -86.4% | 47.8 µM [falling, partial curve] | 30.1 µM [falling, full curve] | 6.51 µM [falling, full curve] | 20.6 µM [falling, partial curve] |  | 0.209 | 0.225 | 0.333 | -12.3 | 11.8 µM [falling, partial curve] | 26.4 µM [falling, single point] |  |  |
| COc1ccc([C@@H]2Sc3ccccc3N(CCN(C)C)C(=O)[C@@H]2OC(C)=O)cc1 | 35.5 µM [falling, single point] | 35.5 µM [falling, single point] | 36.7% and -17.5% | 14.1 µM [rising, single point] and 4.47 µM [falling, full curve, poor fit] | 4.47 µM [falling, full curve, poor fit] | 48.8% and -17% |  |  |  |  |  |  |  |  | 12.6 |  |  |  |  |
| CSc1ccc2c(c1)N(CCC1CCCCN1C)c1ccccc1S2 (centres undefined) | 28.2 µM [falling, single point] | 22.4 µM [falling, single point] | -89.4% |  | 39.8 µM [falling, partial curve, poor fit] | -101% | 26.9 µM [falling, full curve] | 26.9 µM [falling, full curve] | 10.3 µM [falling, partial curve] | 11.6 µM [falling, partial curve] |  |  |  |  | -27.4 |  |  | 8.2 µM [falling, partial curve, poor fit] | 17.8 µM [falling, partial curve, poor fit] |
| NC[C@@H]1O[C@H](C23CC4CC(CC(C4)C2)C3)Cc2c1ccc(O)c2O | 31.6 µM [falling, single point] | 22.4 µM [falling, partial curve] | 64.1% and -66.2% | 28.2 µM [rising, partial curve, poor fit] and 11.2 µM [falling, partial curve] | 28.2 µM [rising, partial curve] and 11.2 µM [falling, partial curve] | 86% and -92.4% | 33.8 µM [falling, full curve] | 19 µM [falling, full curve] | 16.4 µM [falling, single point] |  |  |  |  |  |  |  |  |  |  |
